Results from paper doi:10.1101/2020.09.21.305680.
Positions count from the first letter of the chain named. Results are given in words; binding and its absence hold for the method and conditions named. Some binding calls cover weakened binding; strength is not graded here.

T1: Sld3 (S. cerevisiae) (UniProt P53135)
T1 sequence: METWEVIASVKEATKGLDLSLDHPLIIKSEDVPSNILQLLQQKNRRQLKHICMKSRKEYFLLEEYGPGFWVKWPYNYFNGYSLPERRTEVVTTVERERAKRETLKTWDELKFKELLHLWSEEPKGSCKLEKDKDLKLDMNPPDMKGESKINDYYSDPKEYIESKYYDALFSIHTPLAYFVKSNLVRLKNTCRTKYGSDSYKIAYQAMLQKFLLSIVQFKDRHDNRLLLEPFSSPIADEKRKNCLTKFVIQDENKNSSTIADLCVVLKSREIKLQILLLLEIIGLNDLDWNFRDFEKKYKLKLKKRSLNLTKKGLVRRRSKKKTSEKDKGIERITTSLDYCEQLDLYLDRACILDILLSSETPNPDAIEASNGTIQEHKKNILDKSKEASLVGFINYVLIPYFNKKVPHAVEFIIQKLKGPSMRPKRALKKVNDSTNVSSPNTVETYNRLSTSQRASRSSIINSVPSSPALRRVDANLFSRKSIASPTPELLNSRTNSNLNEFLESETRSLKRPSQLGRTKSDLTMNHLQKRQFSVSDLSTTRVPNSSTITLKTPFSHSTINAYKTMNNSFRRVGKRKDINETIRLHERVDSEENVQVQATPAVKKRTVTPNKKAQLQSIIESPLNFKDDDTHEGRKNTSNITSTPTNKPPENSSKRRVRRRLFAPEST

T2: Sld3^Esa1(-)-3 (S. cerevisiae) (UniProt P53135)
T2 sequence: T1 sequence with P157T, T193S, V264L, P623Q

B1: Dpb11 (protein, UniProt P47027 1-764)
chain: MKPFQGITFCPTAINNEILAKKISKKIIKLGGIFSKDLTRQVNVLVVGSTTNTNKFKFAVKHRFDIIFIDIQAIDDIYQLWLSGENILPDSNTATMTGSTYEMLKILYRRFSFKYLHNFNIFIGRITDTNITSIDSLVRSIKKLGCSSYNYQNFVIKDTSSHNDDDDQGQNGQISIFVTDTLLGARVNAAIEQNIPIVHFKWILDCQKRSALLPYDPYYLLPNIKDLPYDSIGSNSCDCWDKINTTFPTNIDAQSSLQRQQSSSTLTPSLPKTSSLLNKFKPKGEKIWDKAMSLQQHSKTNFSVLGQSPLSINNKQEDLSDNSTLIFKNCAFIIHHIFPGNHRSILTKIVVQNGGKIETSYLSGIYDHSYYIIPSNKALDSFNDLPEIIDDNDGIVTEFFIERCLYYQKLLHPIDLWSKPFLSTIEFQVSSSSKLLHHEFSSSPFLNVTITGFSGVELLHLTKVLNLLKPMGINYVEYLNKSTDILLINLAALPSIPKTHPLWSNEFSDLFTQFCINNNNDDPGDNNRKDFQNNSILRNSMKRKIEYIKKFHSIPVVTPAFIFKLLSAASGENNEIFLNNIKWCIICPRGHKDDFKCKIKKPYYTSISSEKKYQNNDPKIDKTILLKRNNSSLSEHSMKDTKNELLQKIRETDSGRKKRSVSSSIMDVSSERQMPDTKRIKLESLPKNFVPKQIKRTTSWGTIMSENVPTEQPTAISNPEEIPRTEEVSHTQVTYGSIQDKKRTASLEKPMRRQTRNQTKELDS
B2: Orc2 (protein, UniProt P32833 1-620)
chain: MLNGEDFVEHNDILSSPAKSRNVTPKRVDPHGERQLRRIHSSKKNLLERISLVGNERKNTSPDPALKPKTPSKAPRKRGRPRKIQEELTDRIKKDEKDTISSKKKRKLDKDTSGNVNEESKTSNNKQVMEKTGIKEKREREKIQVATTTYEDNVTPQTDDNFVSNSPEPPEPATPSKKSLTTNHDFTSPLKQIIMNNLKEYKDSTSPGKLTLSRNFTPTPVPKNKKLYQTSETKSASSFLDTFEGYFDQRKIVRTNAKSRHTMSMAPDVTREEFSLVSNFFNENFQKRPRQKLFEIQKKMFPQYWFELTQGFSLLFYGVGSKRNFLEEFAIDYLSPKIAYSQLAYENELQQNKPVNSIPCLILNGYNPSCNYRDVFKEITDLLVPAELTRSETKYWGNHVILQIQKMIDFYKNQPLDIKLILVVHNLDGPSIRKNTFQTMLSFLSVIRQIAIVASTDHIYAPLLWDNMKAQNYNFVFHDISNFEPSTVESTFQDVMKMGKSDTSSGAEGAKYVLQSLTVNSKKMYKLLIETQMQNMGNLSANTGPKRGTQRTGVELKLFNHLCAADFIASNEIALRSMLREFIEHKMANITKNNSGMEIIWVPYTYAELEKLLKTVLNTL
B3: Esa1 (aa 147–445) (domain or fragment, UniProt Q08649 147-445)
chain: KLRTSGSMTQNPHEVARVRNLNRIIMGKYEIEPWYFSPYPIELTDEDFIYIDDFTLQYFGSKKQYERYRKKCTLRHPPGNEIYRDDYVSFFEIDGRKQRTWCRNLCLLSKLFLDHKTLYYDVDPFLFYCMTRRDELGHHLVGYFSKEKESADGYNVACILTLPQYQRMGYGKLLIEFSYELSKKENKVGSPEKPLSDLGLLSYRAYWSDTLITLLVEHQKEITIDEISSMTSMTTTDILHTAKTLNILRYYKGQHIIFLNEDILDRYNRLKAKKRRTIDPNRLIWKPPVFTASQLRFAW
B4: Eaf5 (protein, UniProt P39995 1-279)
chain: MDKEVSELVVLQLIHTLISNKNEELVRNGGGINMIGNNLRISLVKLTNEIQNNLLINELTNLRRQSNVANGNRKLGINDILTIVKNLFPEYRTTLNDGQLSLHGLEMHDIEKLLDEKYDRFKKTQVEQIRMMEDEILKNGIKTGASQLQPHANAGKSGSAGTSATITTTTPHMAHSMDPKREKLLKLYRDTVLNKLESKTGNFQKLFKSPDGSIIKNEINYEDIKNETPGSVHELQLILQKSITDGVMRKVIGTDDWKLARQVQFELDDTVQFMRRALE
B5: Eaf6 (protein, UniProt P47128 1-113)
chain: MTDELKSYEALKAELKKSLQDRREQEDTFDNLQQEIYDKETEYFSHNSNNNHSGHGGAHGSKSHYSGNIIKGFDTFSKSHHSHADSAFNNNDRIFSLSSATYVKQQHGQSQND

target: T1, Sld3 (S. cerevisiae); experiment: two-hybrid

Binder | binding
B1 | binds
B2 | binds
B3 | binds
B4 | no binding
B5 | no binding

target: T2, Sld3^Esa1(-)-3 (S. cerevisiae); experiment: two-hybrid

Binder | binding
B1 | binds
B2 | binds
